Results: PubChem BioAssay AID1487 (National Center for Advancing Translational Sciences (NCATS), 2009)
Out of some 200,000 compounds screened, about 25 (0.01%) were called active. The shares of active, inactive and inconclusive entries below differ from those in the screen. Calls follow the shape of the dose curve; as a rule, active = well fitted inhibition curve with a large enough effect in the signal ratio, with a control signal flat (not every such curve was filed as active); inconclusive = small, poorly fitted or top-dose-only effect, or effect the other way, or a change in a side signal; inactive = flat fitted curve, though single readings scatter; the % refers to the signal ratio. Potencies of inconclusive entries are doubtful fits and often do not repeat.

assay: qHTS Assay for Modulators of Lamin A Splicing; conditions: HeLa LMNA splicing GFP/RFP minigene ratio, 48 h; ratio change, negative = inhibition: at 46.1 µM (top of the series) unless noted
Outline: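 S3 HeLa cells stably expressing lamin A-EGFP splicing minigene plus DsRed2, 600 cells/well, 48 h compound exposure at 37C. Laser-scanning cytometry; analysed as GFP (500-530 nm)/RFP (575-640 nm) total intensity ratio; 0.5% DMSO vehicle.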
% is scaled to controls: 0 for no effect and ±100 for the full control effect; potency is read from the fitted curve at half-maximal effect.

Row | SMILES | ratio change, negative = inhibition | Potency
1 | CC1Cc2ccccc2N1C(=S)Nc1cccc(S(=O)(=O)N(C)C)c1 (stereo not given) | inconclusive: -2.19% [at 46 µM] | 
2 | CC(C)(C)NC(=O)CCCSc1nc2ccccc2s1 |  | inconclusive: 35.5 µM [falling, single point]
3 | C/C=C/C(=O)Nc1nnc(C(C)C)s1 | inconclusive: -29.8% | 
4 | O=C(NC(=S)Nc1ccc(S(=O)(=O)Nc2nccs2)cc1)c1ccc(F)cc1 | inactive | 
5 | O=C(NC(=S)N1CCCCC1)C12CC3CC(CC(C3)C1)C2 | inactive | 
6 | O=C(O)c1cnc(-c2ccccc2)nc1Sc1cccc(Cl)c1 | inactive | 
7 | CCOc1ccc(OCC)c(NC(=O)C2CCN(S(=O)(=O)c3ccc4c(c3)CC(C)N4C(C)=O)CC2)c1 (stereo not given) | inactive | 
8 | O=C(Nc1ccc(F)cc1)NC1CCN(Cc2nnnn2Cc2ccco2)CC1 | inactive | 
9 | CN(C)c1cccc(C(=O)N/N=C/c2ccsc2)c1 | inconclusive: 2.99% | 
10 | O=S(=O)(c1cccc(Cl)c1)n1c(/C=C/c2ccccc2Cl)nc2ccccc21 | inconclusive: -17.6% [at 46 µM] | 
11 | COc1ccccc1C(=O)Nc1nc2ccc(S(C)(=O)=O)cc2s1 | inactive | 
12 | O=C(c1ccccc1)N1CCCCC(S(=O)(=O)c2ccc3ccccc3c2)C1=O (stereo not given) | inactive | 
13 | CCOC(=O)N1CCN(C(=O)c2ccc3c(SCC(=O)O)c4c(nc3c2)CCCC4)CC1 | inactive | 
14 | COC1=CC(=O)C[C@@H](C)[C@]12Oc1c(Cl)c(OC)cc(OC)c1C2=O | inconclusive: 13.6% | 
15 | CC1(C)C2CCC(C2)C1(C)NC(=O)CNCC1CCCCC1 (stereo not given) | inactive | 
16 | O=C(CSc1ccc(-c2ccc(F)cc2)nn1)N1CCCc2ccccc21 | inconclusive: -29.8% | 
17 | COC(=O)c1ccc(Cn2cnc3c(cnn3-c3ccc(C)c(C)c3)c2=O)o1 |  | inconclusive: 22.4 µM [fluorescent, single point]
18 | O=C1CCCC(O)=C1N=Nc1ccc(C(=O)O)cc1 | inactive | 
19 | CC(Oc1ccccc1Cl)c1nnc(N)s1 (stereo not given) | inactive | 
20 | COc1ccc(CNc2ncncc2-c2c(C)noc2C)c(OC)c1 | inactive | 
21 | O=C(O)c1ccc(COc2ccc(CO)cc2Cl)cc1 | inactive | 
22 | C#CCNC(=O)c1ccc(OCc2ccccc2)cc1Cl | inconclusive: -12.6% [at 46 µM] | 

Retrieved by compound from the entries so far, 3 records:
Row | SMILES | ratio change, negative = inhibition | Potency
11 | COc1ccccc1C(=O)Nc1nc2ccc(S(C)(=O)=O)cc2s1 | inactive | 
9 | CN(C)c1cccc(C(=O)N/N=C/c2ccsc2)c1 | inconclusive: 2.99% | 
3 | C/C=C/C(=O)Nc1nnc(C(C)C)s1 | inconclusive: -29.8% | 

Next records:

Row | SMILES | ratio change, negative = inhibition | Potency
23 | CCCc1nn2c(=O)cc(COC(=O)c3cccc(NC(=O)c4ccc(OCC)cc4)c3)nc2s1 | inactive | 
24 | Cc1ccc(OCC(=O)N2CC(C)OC(C)C2)c([N+](=O)[O-])n1 (stereo not given) | inconclusive: 9.46% [at 46 µM] | 
25 | COc1ccccc1-c1cc(C(F)(F)F)nc(S(=O)(=O)CCCC(=O)NCc2ccc(F)cc2)n1 | inconclusive: -31.1% [at 9.22 µM] | 
26 | CCOC(=O)C[N+]1(C)CCN(C(C)=O)CC1 | inconclusive: 14.2% [at 46 µM] | 
27 | COc1ccc(NC(=O)CSc2nc3ccccc3n2CC(=O)N(C)C2CCCCC2)cc1 | inactive | 
28 | CC(=O)NC1C(=O)N=C(SCC(=O)Nc2cccc(Cl)c2)NC1=O (stereo not given) | inactive: -14.4% [at 9.22 µM] | 
29 | O=[N+]([O-])c1ccc(/C=N/N/C(=N/c2ccccn2)c2ccccn2)cc1 | inactive | 
30 | COc1c2c(cc3occ(-c4ccc5c(c4)OCO5)c(=O)c13)OC(C)(C)C=C2 |  | inconclusive: 35.5 µM [cytotoxic, single point]
31 | Clc1ccc(OCc2nn3c(C4CCCCC4)nnc3s2)c(Cl)c1 | inconclusive: -35% | 
32 | NCC(O)CN(c1ccccc1)c1ccccc1 (stereo not given) | inconclusive: 2.26% [at 46 µM] | 
33 | CCCNC(=O)c1ccc(Cn2c(SCC(N)=O)nc3ccccc3c2=O)cc1 | inconclusive: -9.86% [at 46 µM] | 
34 | Cc1cnc(CNc2cc(-c3ccccc3C(F)(F)F)ncn2)cn1 | inactive | 
35 | CCCCCCCC(=O)NNC(=O)c1c(O)c2ccccc2n(CC)c1=O | inconclusive: -4.43% [at 46 µM] | 
36 | CCOc1ccccc1C(=O)N1CCc2cc(OC)c(OC)cc2C1COc1ccc(OC)cc1 (stereo not given) | inactive | 
37 | CC(C)CC(=O)Nc1ccc2nc(SCC(=O)N3CCOCC3)sc2c1 | inactive | 
38 | COc1ccc(NC(=O)c2cc(C)on2)cc1 | inconclusive: 35.5% [at 46 µM] | 
39 | CCCCC1=NC2(CCCC2)C(=O)N1Cc1ccc(-c2ccccc2-c2nn[nH]n2)cc1 | inconclusive: 24.8% [at 46 µM] | 
40 | CC(C)CCNC(=O)c1cc(-c2cccnc2)nc2ccc(S(=O)(=O)N3CCC(C)CC3)cc12 | inconclusive: 14.7% [at 46 µM] | 
41 | COc1ccc(-c2coc3cc(O)cc(O)c3c2=O)cc1 | inconclusive: -30.2% | 
42 | Cn1cc(-c2nc3cnc(OCc4ccccc4)nc3n(CCC#N)c2=O)c2ccccc21 | inconclusive: 6.75% | 
43 | COc1ccc(NC(=O)C2CCC(N3C(=O)C4C5C=CC(C5)C4C3=O)CC2)cc1 (stereo not given) | inactive | 
44 | Cc1cccc(Oc2ccc(NC(=O)C3CC=CCC3C(=O)O)cc2)c1 (stereo not given) | inactive | 

Row | SMILES | ratio change, negative = inhibition | Potency
45 | O=C(NC1CCCCC1)c1ccc(CSc2nc3cccnc3n2Cc2ccccc2)cc1 | inconclusive: -2.39% [at 46 µM] | 
46 | CC1=C(c2ccc(C(C)C)cc2)S(=O)(=O)N=C1N1CCC(C(=O)NCc2ccc(C)o2)CC1 | inactive | 
47 | COc1ccc(NC(=O)Cc2cccs2)c(OC)c1 | inactive | 
48 | COc1ccc(CNC(=O)c2coc(=O)c3ccccc23)c(OC)c1 | inconclusive: -42.7% [at 46 µM] | 
49 | CN1CCN(CCCNC(=O)c2ccc(/C=C3\Sc4ccccc4N(Cc4ccccc4F)C3=O)cc2)CC1 | inconclusive: 37.5% [at 46 µM] | 
50 | Cc1ccc(C2CC(=O)NC(SCC(N)=O)=C2C#N)s1 (stereo not given) | inconclusive: 7.29% [at 46 µM] | 
51 | CC(C)c1cc(NC(=O)CSc2nnc(-c3ccccc3F)n2C)on1 | inactive | 
52 | Cc1ccc(-c2nc3sc(CCNC(=O)c4ccc(F)c(F)c4)c(C)n3n2)cc1 | inactive | 
53 | CCNC(=S)N/N=C(\C)c1cccc(C(F)(F)F)c1 | inconclusive: 32.4% [at 46 µM] | 
54 | COC(=O)C1OC2(OC1C(=O)OC)c1ccccc1-c1ccccc12 (stereo not given) | inconclusive: 15% | 
55 | C[C@H](NC(=O)/C(C#N)=C/c1ccc(O)c(O)c1)c1ccccc1 | inconclusive: -27.5% | 
56 | FC(F)(F)c1cc(-c2ccco2)nc(NCc2ccc(Cl)cc2)n1 | inconclusive: 8.63% | 
57 | O=C(CCCN1C(=O)CSc2ncccc21)N1CCN(Cc2ccccc2)CC1 | inactive | 
58 | CCCCC(NS(=O)(=O)c1ccc(OC)cc1)C(=O)O (stereo not given) | inconclusive: -6.7% | 
59 | Cn1ccc2cc(S(=O)(=O)N3CCCC(C(=O)NCc4ccccc4F)C3)ccc21 (stereo not given) | inconclusive: -12% [at 46 µM] | 
60 | CC1CN(CCCCOc2ccc(F)cc2)CC(C)O1 (stereo not given) | inconclusive: 5.59% [at 46 µM] | 
61 | COc1cccc(CN2CCN(c3nc4nonc4nc3NC3CC3)CC2)c1 | inconclusive: 20% [at 46 µM] | 
62 | Cc1nnc(NC(=O)c2ccc(S(=O)(=O)N3CCCCCC3)cc2)o1 | inconclusive: -22.3% | 
63 | COc1cccc(C(=O)COc2ccc3c(C)c(Cc4ccccc4)c(=O)oc3c2)c1 |  | inconclusive: 35.5 µM [falling, single point]
64 | O=C(CN1C(=O)C2CC=CCC2C1=O)Nc1nc2ccc(F)cc2s1 (stereo not given) | inconclusive: -10.7% [at 9.22 µM] | 
65 | O=C(NCc1cccs1)c1cc(-c2ccncc2)nc2ccc(Br)cc12 | inconclusive: 14.4% [at 46 µM] | 
66 | O=C(O)C1C2C=CC(C2)C1C(=O)NCCCn1ccnc1 (stereo not given) | inactive | 

Row | SMILES | ratio change, negative = inhibition | Potency
67 | O=C(c1cc(-c2ccccc2)nc2ccccc12)N1CCc2ccccc2C1 | inconclusive: -19.4% | 
68 | CCc1nnc(NS(=O)(=O)c2ccc(NC(=S)NC(=O)c3cccnc3)cc2)s1 | inconclusive: -1.97% [at 46 µM] | 
69 | N#Cc1cnn2c(-c3ccc(Cl)cc3Cl)ccnc12 | inconclusive: 35.7% [at 46 µM] | 
70 | O=C(Nc1ccc(N2CCOCC2)nc1)c1ccc(C(F)(F)F)cc1 | inconclusive: 9.43% [at 9.22 µM] | 
71 | CC1=CC(=O)N(c2ccc(C)cc2)C1c1ccc(Cl)cc1 (stereo not given) | inconclusive: -26.4% | 
72 | O=C(N/N=C/c1c(Cl)cccc1Cl)c1n[nH]c2c1CCCC2 | inactive | 
73 | COc1ccc(C2=NOC(Cn3c(Cc4ccc(Cl)cc4)nc4c3c(=O)n(C)c(=O)n4C)C2)cc1 (stereo not given) | inactive | 
74 | C/C(N)=C(/C#N)C(=O)COC(=O)c1ccccc1Cc1ccccc1 | inconclusive: -11.6% [at 46 µM] | 
75 | CCOC(=O)c1ccc(O)cc1 | inconclusive: -11.5% | 
76 | COc1ccc2nc(SCC(=O)Nc3ccc(S(=O)(=O)Nc4onc(C)c4C)cc3)[nH]c2c1 | inactive | 
77 | COc1cc(OC)c(C2=NOC(C(=O)N3CCN(C(=O)c4ccco4)CC3)C2)cc1Cl (stereo not given) | inconclusive: 31.6% [at 46 µM] | 
78 | CCOC(=O)C1CCN(C(c2ccc(C)cc2)c2sc3nc(-c4ccco4)nn3c2O)CC1 (stereo not given) | inactive | 
79 | CC(C)c1ccc(/C=C/C(=O)Nc2nn[nH]n2)cc1 | inconclusive: 17.7% [at 46 µM] | 
80 | CC(C)c1ccc(CNC(=O)c2ccc(N3CCCC3)c(NC(=O)NCc3ccc(F)cc3)c2)cc1 | inactive | 
81 | CC(C)C(=O)Nc1nnc(NC(=S)Nc2ccccc2)s1 | inconclusive: 30.7% [at 46 µM] | 
82 | CC1=C(C(=O)Nc2cccc(F)c2)C2(CCCCC2)OC1=O | inconclusive: 20.2% [at 46 µM] | 
83 | O=C(O/N=C(\c1ccccc1)c1ccncc1)c1ccccc1Cl | inconclusive: -7.27% [at 46 µM] | 
84 | COC(=O)c1cc(-c2ccc(NC(C)=O)cc2)nc2ccccc12 | inconclusive: -13.7% [at 46 µM] | 
85 | Cc1nnc(SCC(=O)Nc2ccc(S(=O)(=O)N3CCCC3)cc2)n1N | inactive | 
